Measurements reported in PubChem BioAssay AID1259277 (Sanger Institute, 2017)
Screen: 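Follow-up of kinome hits for drug and siRNA synthetic lethality in colorectal cancer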 (follow-up of hits). System: LS123 human colorectal cancer cells. Reagent: single siRNA against human genes. Conditions: anchor drug BYL719 at 1 µM, cetuximab at 5 µg/ml or trametinib at 10 nM, or DMSO vehicle only, given one day after siRNA delivery. Measured: 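Replicate mean of viability versus control pool 2 (non-targeting), and a synergy score comparing joint viability with separate effects of anchor drug and siRNA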. Direction: synergy score with trametinib: higher = stronger synergistic killing with trametinib; synergy score with BYL719: higher = stronger synergistic killing with BYL719; synergy score with cetuximab: higher = stronger synergistic killing with cetuximab. Call rule: 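Active if synergy exceeds 0.10 for any of the three drug combinations, otherwise inactive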. Calls: active = synergy with at least one anchor drug; inactive = no synergy with any anchor drug.
Here is an unselected part of 160 reagents. 48 of all reagents (30%) were called active. 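Calls refer to individual siRNAs; confirming a gene required at least two siRNAs in multiple cell lines.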 Unmarked entries are inactive. Reagents against one gene are numbered here. Further read-outs or replicates are left out here. The record does not give: the amount of reagent, the time to read-out.

no.	target gene	reagent no.	synergy score with trametinib	synergy score with BYL719	synergy score with cetuximab
1	HUNK	1	0.0803	0.00469	-0.0851
2	HUNK	2	-0.0142	-0.0256	-0.101
3	HUNK	3	0.00824	-0.13	-0.236
4	HUNK	4	0.309 (active)	0.0318	-0.04
5	CSNK2A2	1	0.0787	-0.112	-0.214
6	CSNK2A2	2	0.0517	-0.119	-0.0489
7	CSNK2A2	3	0.122 (active)	-0.0469	-0.0464
8	CSNK2A2	4	0.00872	-0.264	-0.0741
9	PINK1	1	0.0908	-0.131	-0.208
10	PINK1	2	0.21 (active)	0.0659	-0.0418
11	PINK1	3	0.0216	-0.199	-0.0883
12	PINK1	4	0.203 (active)	0.0435	0.00927
13	NR2F2	1	0.0749	-0.175	0.0409
14	NR2F2	2	0.0443	-0.165	-0.216
15	NR2F2	3	0.158 (active)	-0.105	-0.0462
16	NR2F2	4	0.212 (active)	-0.112	-0.118
17	PFKFB3	1	-0.0717	-0.104	-0.0141
18	PFKFB3	2	0.144 (active)	-0.156	0.139
19	PFKFB3	3	-0.104	-0.172	-0.125
20	PFKFB3	4	0.107 (active)	-0.161	-0.0632

2 of these entries in another layout.
NR2F2 #1: synergy score with trametinib = 0.0749; synergy score with BYL719 = -0.175; synergy score with cetuximab = 0.0409
NR2F2 #2: synergy score with trametinib = 0.0443; synergy score with BYL719 = -0.165; synergy score with cetuximab = -0.216
